Results as given in PubChem BioAssay AID1347076 (National Center for Advancing Translational Sciences (NCATS), 2019).
The whole screen tested about 400,000 compounds, of which about 13,000 (3.2%) were called active. Inconclusive means that the source gave no clear call. Such entries were picked first, then a sample of the others. The call rests on the fitted dose curve; in most records, active means well fitted cell-killing curve with a large enough effect; inconclusive means small, poorly fitted or top-dose-only effect, or effect the other way; inactive means flat fitted curve, though single readings scatter. Where the call is inconclusive, the potency comes from a doubtful curve fit.

Experiment: qHTS assay for MDR1-selective chemotherapeutics: Primary screen using the drug-selected MDR subline cells KB-V1; further: nearly all actives have a fitted effect of over 60% in size
Details: KB-V1 MDR cells viability, CellTiter-Glo, 72 h; series mostly up to 46.1 µM
In short: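 KB-V1, DMEM (no phenol red) + 10% FBS; cpd pin-transferred, titration series; 72 h, 37 degrees C; CellTiter-Glo, luminescence. Data normalized, curve-fit.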
Potency means the concentration at half of the fitted maximal effect.

Row | SMILES | Potency
1 | COc1ccc(NC(=O)NC(c2ccccc2)c2ccccc2)c(OC)c1 | inconclusive: 29.1 µM [rising, single point]
2 | CS(=O)(=O)N(CC(=O)N1CCc2ccccc2C1)c1ccccc1Br | inactive
3 | COc1ccc(Nc2nc(N)nc(CCl)n2)cc1 | inconclusive: 18.4 µM [cytotoxic, single point]
4 | O=[N+]([O-])c1ccc(NCCNCCOc2nonc2-c2ccccc2)c([N+](=O)[O-])c1 | inconclusive: 18.4 µM [cytotoxic, partial curve]
5 | CN(C)c1nc(N)nc(CSc2nnnn2-c2cccc3ccccc23)n1 | active: 6.51 µM
6 | Cc1cc(C(=O)OCC(=O)N2CC(=O)Nc3ccccc32)c(C)n1-c1ccc(F)cc1 | active: 16.4 µM
7 | N#Cc1c(N2CCN(C(=O)c3ccccc3)CC2)nc(-c2ccccc2)c2c1CCCC2 | inconclusive: 25.9 µM [cytotoxic, single point]
8 | O=C(CCCn1cnc([N+](=O)[O-])n1)Nc1cccc(Cl)c1Cl | inconclusive: 23.1 µM [cytotoxic, single point]
9 | COc1ccc(-c2cc(C(=O)Nc3cc(C)nn3-c3ccccc3)no2)cc1OC | inconclusive: 29.1 µM [rising, single point]
10 | Cc1cc(-c2csc3nc[nH]c(=S)c23)cc(C)c1C | inconclusive: 18.4 µM [cytotoxic, single point]
11 | COc1cc(OC)cc(C(=O)NC(C)CCc2ccccc2)c1 (stereo not given) | inconclusive: 14.6 µM [cytotoxic, partial curve, poor fit]
12 | CC12C=CC(=O)C=C1CCC1C2C(=O)CC2(C)C1CCC2(O)C(=O)CO (stereo not given) | inactive
13 | CC1CN(C(=O)c2cccc(S(=O)(=O)N3CCN(c4ccc(F)cc4)CC3)c2)CC(C)O1 (stereo not given) | inconclusive: 6.51 µM [cytotoxic, partial curve]
14 | CCCCc1nc(Cl)c(C#N)c2c1CSC(C)(C)C2 | inactive
15 | CCCCn1c(N)c(N(CC)C(=O)c2c(CC)noc2C)c(=O)[nH]c1=O | inconclusive: 4.11 µM [rising, full curve, poor fit]
16 | COc1ccc(/C(O)=C/C(=O)C(=O)Nc2c(C)n(C)n(-c3ccccc3)c2=O)cc1 | active: 16.4 µM
17 | NC(=O)CC(NC(=O)Cc1ccc(Br)cc1)c1ccc(N2CCC(Br)CC2)c([N+](=O)[O-])c1 (stereo not given) | inactive
18 | CCc1ccc2c(c1)NC(=O)C2(C)Cc1ccc(F)cc1 (stereo not given) | inconclusive: 18.4 µM [cytotoxic, partial curve, poor fit]
19 | COc1ccc2c(c1)C(=O)C(=O)N2CCS(=O)(=O)c1ccccc1 | inactive
20 | COc1cccc(/C=N/NC(=O)CCCC(=O)Nc2ccc(Br)cc2)c1 | active: 14.6 µM
21 | CC(C)c1ccc(C(=O)CC2(O)C(=O)N(CCc3ccccc3)c3ccc(Cl)cc32)cc1 (stereo not given) | inconclusive: 29.1 µM [cytotoxic, single point]
22 | CC(=NC(C)C)C1=C(O)C(C)OC1=O (stereo not given) | inactive
23 | Cc1cc2ccccn2c1C(=O)c1ccc([N+](=O)[O-])o1 | inconclusive: 20.6 µM [cytotoxic, single point]

Look-ups from above.
COc1cc(OC)cc(C(=O)NC(C)CCc2ccccc2)c1 (stereo not given) | Potency: inconclusive: 14.6 µM [cytotoxic, partial curve, poor fit]
COc1ccc(-c2cc(C(=O)Nc3cc(C)nn3-c3ccccc3)no2)cc1OC | Potency: inconclusive: 29.1 µM [rising, single point]
CCc1ccc2c(c1)NC(=O)C2(C)Cc1ccc(F)cc1 (stereo not given) | Potency: inconclusive: 18.4 µM [cytotoxic, partial curve, poor fit]

Next part:

Row | SMILES | Potency
24 | CCOC(=O)c1cccc(Nc2ncnc3ccccc23)c1 | active: 11.6 µM
25 | C[C@@H]1CN([C@@H](C)CO)C(=O)CCCn2nncc2CO[C@H]1CN(C)Cc1ccncc1 | inactive
26 | CNC(=O)C1CCC(Cn2c(=O)c3sccc3n(CC(=O)Nc3cc(C)cc(C)c3)c2=O)CC1 (stereo not given) | inconclusive: 18.4 µM [rising, partial curve, poor fit]
27 | O=C(/C=C/c1ccc(O)c(O)c1)OCCc1ccccc1 | inconclusive: 29.1 µM [cytotoxic, single point]
28 | COc1cccc(-c2nn(C)c3sc(C(=O)NCCCN(C)Cc4ccccc4)cc23)c1 | inactive
29 | Cc1cccn2c(=O)c3cc(C(=O)NCCN4CCOCC4)c(=N)n(CCCN4CCOCC4)c3nc12 | inactive
30 | Cc1ccc(C(C(=O)NC2CCCC2)N(C(=O)CNC(=O)c2ccco2)c2ccccc2)o1 (stereo not given) | inconclusive: 20.6 µM [cytotoxic, single point]
31 | CCC(C)n1c(=N)c(C(=O)NCc2ccco2)cc2c(=O)n3cc(C)ccc3nc21 (stereo not given) | inconclusive: 20.6 µM [rising, partial curve]
32 | CC(C)(C)CC(=O)Nc1nc(C(N)Cc2ccc(C(F)(F)F)cc2)cs1 (stereo not given) | inconclusive: 20.6 µM [cytotoxic, partial curve, poor fit]
33 | Cc1cc(C)cc(CC2CC(=O)N(c3ccc([N+](=O)[O-])cc3)C2=O)c1 (stereo not given) | inactive
34 | CC1CCCCN1CCCNC(=O)c1sc2ncccc2c1-n1cccc1 (stereo not given) | inactive
35 | C=CCn1c(SCC(=O)OCC)nc(C(F)(F)F)cc1=O | inconclusive: 20.6 µM [cytotoxic, single point]
36 | CCCCCNCc1ccc(Br)cc1 | inconclusive: 25.9 µM [cytotoxic, single point]
37 | COc1ccc(C(CNC(=O)C(CCSC)NC(=O)c2ccccc2Cl)N2CCCCC2)cc1 (stereo not given) | active: 23.1 µM
38 | COc1ccc(-c2csc(NC(=O)CCn3cnc4ccccc4c3=O)n2)cc1OC | active: 18.4 µM
39 | CCOc1ccc(C(=O)COC(=O)CNC(=O)C2CCCCC2)cc1 | inconclusive: 32.6 µM [rising, single point]
40 | O=C(NCCN1CCC(n2c(=O)[nH]c3ccccc32)CC1)c1ccccc1Cl | inconclusive: 20.6 µM [cytotoxic, single point]
41 | Cc1ccc(C(=O)Nc2cc(-c3nc4cc(Cl)ccc4o3)ccc2C)c(C)c1 | inconclusive: 23.1 µM [rising, single point]
42 | Cc1cc(C)cc(-n2ncc3c2CCCC3NC(=O)c2cc(C)oc2C)c1 (stereo not given) | inconclusive: 16.4 µM [cytotoxic, single point]
43 | COc1cc(OC)cc(-c2nnc(NC(=O)c3ccc4c(c3)OCCO4)o2)c1 | inactive
44 | CCCOc1cc(C)c(S(=O)(=O)NCCOC)cc1C | active: 18.4 µM
45 | CC(C)(C)/C(O)=C(/C#N)c1nc2ccccc2[nH]1 | inconclusive: 20.6 µM [cytotoxic, single point]
